The values that follow come from patent US20190078093.

In one data set the target is EpCAM (UniProt P16422). The data set can be described thus: SELEX. The conditions noted are these: identified by library screening to recognize EpCAM; target verification protocol by crosslinking; label: biotin.
Data set [1] addresses 60S acidic ribosomal protein P1 (RPLP1) (UniProt P05386). Description: pull-down. The conditions noted are these: VCaP exosomes; may be indirect; protein in an extract; label: 5' biotin; single-stranded DNA.
The target of data set [2] is 60S ribosomal protein L30 (RPL30) (UniProt P62888). Description: pull-down. Particulars: VCaP exosomes; may be indirect; protein in an extract; label: 5' biotin; single-stranded DNA.
Data set [3] addresses T1, Charged multivesicular body protein 1b (CHMP1B) (UniProt Q7LBR1).
T1 sequence (looked up, limits assumed): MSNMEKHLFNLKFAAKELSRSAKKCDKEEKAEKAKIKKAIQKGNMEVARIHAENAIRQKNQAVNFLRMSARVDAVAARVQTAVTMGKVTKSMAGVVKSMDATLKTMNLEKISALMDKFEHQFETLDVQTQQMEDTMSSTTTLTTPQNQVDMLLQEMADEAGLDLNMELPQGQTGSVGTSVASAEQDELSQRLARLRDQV
The data set can be described thus: pull-down. The conditions noted are these: VCaP exosomes; may be indirect; protein in an extract; label: 5' biotin; single-stranded DNA.

In data set [4] the target is Charged multivesicular body protein 2a (CHMP2A) (UniProt O43633). Description: pull-down. Particulars: VCaP exosomes; may be indirect; protein in an extract; label: 5' biotin; single-stranded DNA.
Data set [5] deals with T2, Charged multivesicular body protein 4b (CHMP4B) (UniProt Q9H444).
T2 sequence (looked up, limits assumed): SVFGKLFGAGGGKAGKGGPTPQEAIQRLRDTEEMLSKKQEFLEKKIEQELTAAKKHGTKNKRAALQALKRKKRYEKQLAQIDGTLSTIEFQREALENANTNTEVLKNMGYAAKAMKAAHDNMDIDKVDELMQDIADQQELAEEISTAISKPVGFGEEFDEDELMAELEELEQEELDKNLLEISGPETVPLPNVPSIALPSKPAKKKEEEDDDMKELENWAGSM
Description: pull-down. The conditions noted are these: VCaP exosomes; may be indirect; protein in an extract; label: 5' biotin; single-stranded DNA.

Data set [6] has as its system T3, Cleavage and polyadenylation specificity factor subunit 7 (CPSF7).
T3 sequence (looked up, limits assumed): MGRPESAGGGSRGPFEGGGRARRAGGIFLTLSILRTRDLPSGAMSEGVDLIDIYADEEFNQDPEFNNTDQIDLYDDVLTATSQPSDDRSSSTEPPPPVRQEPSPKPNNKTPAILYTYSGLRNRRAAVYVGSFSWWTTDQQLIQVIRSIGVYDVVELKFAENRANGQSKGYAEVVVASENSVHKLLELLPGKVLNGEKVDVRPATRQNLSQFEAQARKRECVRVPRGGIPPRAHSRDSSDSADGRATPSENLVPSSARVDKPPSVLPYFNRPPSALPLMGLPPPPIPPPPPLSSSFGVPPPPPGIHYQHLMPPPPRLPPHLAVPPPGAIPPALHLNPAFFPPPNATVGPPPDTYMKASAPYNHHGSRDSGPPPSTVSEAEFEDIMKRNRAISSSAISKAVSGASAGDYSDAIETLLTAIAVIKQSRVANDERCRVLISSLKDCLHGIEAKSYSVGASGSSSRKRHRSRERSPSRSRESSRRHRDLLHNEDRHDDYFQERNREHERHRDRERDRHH
The data set can be described thus: pull-down. Particulars: VCaP exosomes; may be indirect; protein in an extract; label: 5' biotin; single-stranded DNA.

For data set [7], the system named is T4, Cold-inducible RNA-binding protein isoform 3 (CIRBP).
T4 sequence (looked up, limits assumed): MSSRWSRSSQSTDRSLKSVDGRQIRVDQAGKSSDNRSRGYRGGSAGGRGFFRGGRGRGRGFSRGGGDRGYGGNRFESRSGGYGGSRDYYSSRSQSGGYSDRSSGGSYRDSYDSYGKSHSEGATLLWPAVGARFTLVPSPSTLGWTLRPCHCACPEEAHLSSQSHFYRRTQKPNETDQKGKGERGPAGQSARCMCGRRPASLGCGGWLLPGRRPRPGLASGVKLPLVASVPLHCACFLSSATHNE
The data set can be described thus: pull-down. Particulars: VCaP exosomes; may be indirect; protein in an extract; label: 5' biotin; single-stranded DNA.

Data set [8] deals with DnaJ homolog subfamily A member 2 (DNAJA2) (UniProt O60884). Description: pull-down. Particulars: VCaP exosomes; may be indirect; protein in an extract; label: 5' biotin; single-stranded DNA.
Data set [9] has as its target Latent-transforming growth factor beta-binding protein 2 (LTBP2) (UniProt Q14767). Description: pull-down. The conditions noted are these: VCaP exosomes; may be indirect; protein in an extract; label: 5' biotin; single-stranded DNA.
Data set [10] addresses Polypyrimidine tract-binding protein 1 isoform 3 (PTBP1) (UniProt P26599). Description: pull-down. The conditions noted are these: VCaP exosomes; may be indirect; protein in an extract; label: 5' biotin; single-stranded DNA.
The target of a further data set is Protein S100-A8 (UniProt P05109). The data set can be described thus: pull-down. Particulars: VCaP exosomes; may be indirect; protein in an extract; label: 5' biotin; single-stranded DNA.
For data set [11], the target named is T5, RNA-binding protein 3 (RBM3) (UniProt P98179).
T5 sequence (looked up, limits assumed): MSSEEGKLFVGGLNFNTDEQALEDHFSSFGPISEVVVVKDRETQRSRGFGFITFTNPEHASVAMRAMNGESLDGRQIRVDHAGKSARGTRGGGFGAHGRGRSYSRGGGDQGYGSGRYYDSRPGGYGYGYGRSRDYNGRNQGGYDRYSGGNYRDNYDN
The data set can be described thus: pull-down. Particulars: VCaP exosomes; may be indirect; protein in an extract; label: 5' biotin; single-stranded DNA.

The next data set deals with Syntenin-1 (SDCBP) (UniProt O00560). The data set can be described thus: pull-down. The conditions noted are these: VCaP exosomes; may be indirect; protein in an extract; label: 5' biotin; single-stranded DNA.
For data set [12], the target named is Translational activator GCN1 (UniProt Q92616). The data set can be described thus: pull-down. The conditions noted are these: VCaP exosomes; may be indirect; protein in an extract; label: 5' biotin; single-stranded DNA.
The test system of another data set is VPS28 isoform 2. Description: pull-down. The conditions noted are these: VCaP exosomes; may be indirect; protein in an extract; label: 5' biotin; single-stranded DNA.

The exact form of at least one protein or probe is not confirmed. For some of these results: Where cells or extracts were used, other partners may take part. For some of these results: Tags and fusion partners may be left off the protein sequences shown.

In the case of “AUCCAGAGUGACGCAGCAGUCUUUUCUGAUGGACACGUGGUGGUCUAGUAUCACUAAGCCACCGUGUCCA [CAR003]”, in the data set with EpCAM, the selection result is reported as “selected”.
Consider “CTAGCATGACTGCAGTACGTTACTTAATTGGGGGGGGGGATTCTGTTTTGTCTCTCTGTCTCTTATACACATCTGACGCTGCCGACGA [Sequence 7 (Table 25)]”, for which the binding result in data set [1], in [2], in data set [3], in data set [4], in data set [5] and in [6] was “binds” throughout. Further, the binding result (in [7]; in data set [8]; in data set [9]; in data set [10]; in the data set with Protein S100-A8; in [11]) was “binds” in each case. For the same sequence, the binding result (in the data set with Syntenin-1 (SDCBP); in data set [12]; in the data set on VPS28 isoform 2) was “binds” each time.
